Experimental data: PubChem BioAssay AID602196 (INSERM, 2012)

- Test: 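Genes whose knock-down alters cisplatin killing of lung cancer cells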
- System: human A549 lung cancer cells
- Knock-down reagent: siRNA pair against human genes
- Duration: 48 h transfection before cisplatin; time from cisplatin to read-out not stated
- Challenge: cisplatin at a dose killing half of control-siRNA cells; exact dose and duration not given
- Measured: 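Cisplatin cell death as a shift from the 50% death seen with control siRNA; siRNAs toxic or growth-blocking alone scored 0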
- Direction: two-siRNA summed score (-2 to +2): higher = both siRNAs protect from cisplatin killing; -2 means both sensitise; mean protection from cisplatin (shift in death): higher = protection from cisplatin killing
- Hit rule: 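Each siRNA scores 0 if harmful alone by LDH or WST-1, otherwise +1 if it reduces and -1 if it increases cisplatin killing; a gene is active when both siRNAs agree (sum +2 or -2)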
- Calls: active = both siRNAs shift cisplatin killing the same way; inactive = no consistent shift, or siRNA harmful alone
The deposit covers about 23,000 reagents; shown is an unselected part. Of all reagents, 455 (2%) are marked active. 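Active includes both protection and sensitisation; some change values fall well beyond the stated -50 to +50 range.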 Not all columns of the deposit are shown. Not stated in the record: the amount of reagent.

{"gene symbol": "TIFA (GeneID 92610)", "two-siRNA summed score (-2 to +2)": 0, "mean protection from cisplatin (shift in death) (%)": -10.1, "Outcome": "inactive"}
{"gene symbol": "LOC286436", "two-siRNA summed score (-2 to +2)": 1, "mean protection from cisplatin (shift in death) (%)": 7.7, "Outcome": "inactive"}
{"gene symbol": "LCN12 (GeneID 286256)", "two-siRNA summed score (-2 to +2)": 0, "mean protection from cisplatin (shift in death) (%)": 14, "Outcome": "inactive"}
{"gene symbol": "LOC389204", "two-siRNA summed score (-2 to +2)": 0, "mean protection from cisplatin (shift in death) (%)": -11.4, "Outcome": "inactive"}
{"gene symbol": "USP38 (GeneID 84640)", "two-siRNA summed score (-2 to +2)": 0, "mean protection from cisplatin (shift in death) (%)": 19.3, "Outcome": "inactive"}
{"gene symbol": "ADAM29 (GeneID 11086)", "two-siRNA summed score (-2 to +2)": 0, "mean protection from cisplatin (shift in death) (%)": -7.3, "Outcome": "inactive"}
{"gene symbol": "USP31 (GeneID 57478)", "two-siRNA summed score (-2 to +2)": -1, "mean protection from cisplatin (shift in death) (%)": -21.2, "Outcome": "inactive"}
{"gene symbol": "OR4C13 (GeneID 283092)", "two-siRNA summed score (-2 to +2)": -1, "mean protection from cisplatin (shift in death) (%)": -2.3, "Outcome": "inactive"}
{"gene symbol": "GON4L (GeneID 54856)", "two-siRNA summed score (-2 to +2)": 0, "mean protection from cisplatin (shift in death) (%)": 6.5, "Outcome": "inactive"}
{"gene symbol": "SLC25A46 (GeneID 91137)", "two-siRNA summed score (-2 to +2)": 0, "mean protection from cisplatin (shift in death) (%)": 4.6, "Outcome": "inactive"}
{"gene symbol": "TFAP2A (GeneID 7020)", "two-siRNA summed score (-2 to +2)": 0, "mean protection from cisplatin (shift in death) (%)": -3.8, "Outcome": "inactive"}
{"gene symbol": "LOC442009", "two-siRNA summed score (-2 to +2)": 0, "mean protection from cisplatin (shift in death) (%)": 21.3, "Outcome": "inactive"}
{"gene symbol": "DHCR24 (GeneID 1718)", "two-siRNA summed score (-2 to +2)": 0, "mean protection from cisplatin (shift in death) (%)": -4.3, "Outcome": "inactive"}
{"gene symbol": "ANGPTL8 (GeneID 55908)", "two-siRNA summed score (-2 to +2)": 0, "mean protection from cisplatin (shift in death) (%)": -6.8, "Outcome": "inactive"}
{"gene symbol": "LOC401393", "two-siRNA summed score (-2 to +2)": 0, "mean protection from cisplatin (shift in death) (%)": 9.7, "Outcome": "inactive"}
{"gene symbol": "RPS5 (GeneID 6193)", "two-siRNA summed score (-2 to +2)": 0, "mean protection from cisplatin (shift in death) (%)": 33.2, "Outcome": "inactive"}
{"gene symbol": "METTL25 (GeneID 84190)", "two-siRNA summed score (-2 to +2)": 0, "mean protection from cisplatin (shift in death) (%)": 4.2, "Outcome": "inactive"}
{"gene symbol": "BTN2A2 (GeneID 10385)", "two-siRNA summed score (-2 to +2)": 0, "mean protection from cisplatin (shift in death) (%)": -5.9, "Outcome": "inactive"}
{"gene symbol": "LOC440196", "two-siRNA summed score (-2 to +2)": 0, "mean protection from cisplatin (shift in death) (%)": 8.5, "Outcome": "inactive"}
{"gene symbol": "STON1 (GeneID 11037)", "two-siRNA summed score (-2 to +2)": 0, "mean protection from cisplatin (shift in death) (%)": 0.5, "Outcome": "inactive"}
{"gene symbol": "SLC71A1 (GeneID 64645)", "two-siRNA summed score (-2 to +2)": 0, "mean protection from cisplatin (shift in death) (%)": -2.8, "Outcome": "inactive"}
{"gene symbol": "LOC283299 (GeneID 283299)", "two-siRNA summed score (-2 to +2)": 0, "mean protection from cisplatin (shift in death) (%)": 17.2, "Outcome": "inactive"}
{"gene symbol": "NHERF4 (GeneID 79849)", "two-siRNA summed score (-2 to +2)": -1, "mean protection from cisplatin (shift in death) (%)": -4.8, "Outcome": "inactive"}
{"gene symbol": "BTNL3 (GeneID 10917)", "two-siRNA summed score (-2 to +2)": 0, "mean protection from cisplatin (shift in death) (%)": -1.9, "Outcome": "inactive"}
{"gene symbol": "LOC400890", "two-siRNA summed score (-2 to +2)": 0, "mean protection from cisplatin (shift in death) (%)": -0.4, "Outcome": "inactive"}
{"gene symbol": "CCDC83 (GeneID 220047)", "two-siRNA summed score (-2 to +2)": 0, "mean protection from cisplatin (shift in death) (%)": 8.4, "Outcome": "inactive"}
{"gene symbol": "SMIM14 (GeneID 201895)", "two-siRNA summed score (-2 to +2)": 0, "mean protection from cisplatin (shift in death) (%)": 1.7, "Outcome": "inactive"}
{"gene symbol": "TP53BP2 (GeneID 7159)", "two-siRNA summed score (-2 to +2)": 0, "mean protection from cisplatin (shift in death) (%)": 8.8, "Outcome": "inactive"}
{"gene symbol": "LCN15 (GeneID 389812)", "two-siRNA summed score (-2 to +2)": 0, "mean protection from cisplatin (shift in death) (%)": 13.1, "Outcome": "inactive"}
{"gene symbol": "OR10G2 (GeneID 26534)", "two-siRNA summed score (-2 to +2)": 0, "mean protection from cisplatin (shift in death) (%)": -10, "Outcome": "inactive"}
{"gene symbol": "CRAT (GeneID 1384)", "two-siRNA summed score (-2 to +2)": 1, "mean protection from cisplatin (shift in death) (%)": 7.9, "Outcome": "inactive"}

Quoted from the listing for reference:
{"gene symbol": "USP31 (GeneID 57478)", "two-siRNA summed score (-2 to +2)": -1, "mean protection from cisplatin (shift in death) (%)": -21.2, "Outcome": "inactive"}
{"gene symbol": "OR4C13 (GeneID 283092)", "two-siRNA summed score (-2 to +2)": -1, "mean protection from cisplatin (shift in death) (%)": -2.3, "Outcome": "inactive"}
{"gene symbol": "GON4L (GeneID 54856)", "two-siRNA summed score (-2 to +2)": 0, "mean protection from cisplatin (shift in death) (%)": 6.5, "Outcome": "inactive"}
